Source: the supplement of paper PMC10849652
This is one part of the list.

Chains of the proteins cited; added tags and fusions are not shown. Lines headed by an entry give the natural chain unless they say otherwise; changes in a name come on top.
UniProt Q9BXI6: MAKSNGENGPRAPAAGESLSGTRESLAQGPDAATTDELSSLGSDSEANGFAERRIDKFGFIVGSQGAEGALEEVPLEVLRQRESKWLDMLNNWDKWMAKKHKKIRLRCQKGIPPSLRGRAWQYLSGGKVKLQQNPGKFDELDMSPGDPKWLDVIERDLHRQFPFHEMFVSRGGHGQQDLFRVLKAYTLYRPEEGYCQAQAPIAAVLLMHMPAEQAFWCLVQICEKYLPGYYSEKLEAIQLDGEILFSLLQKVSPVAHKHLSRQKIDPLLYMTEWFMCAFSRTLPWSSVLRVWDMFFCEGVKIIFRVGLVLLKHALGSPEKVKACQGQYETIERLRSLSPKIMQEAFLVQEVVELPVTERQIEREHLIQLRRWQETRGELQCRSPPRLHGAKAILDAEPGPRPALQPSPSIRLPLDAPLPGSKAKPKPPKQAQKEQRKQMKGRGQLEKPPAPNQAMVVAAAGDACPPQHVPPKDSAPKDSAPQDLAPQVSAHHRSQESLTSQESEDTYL
UniProt P10646, whole entry, looked up: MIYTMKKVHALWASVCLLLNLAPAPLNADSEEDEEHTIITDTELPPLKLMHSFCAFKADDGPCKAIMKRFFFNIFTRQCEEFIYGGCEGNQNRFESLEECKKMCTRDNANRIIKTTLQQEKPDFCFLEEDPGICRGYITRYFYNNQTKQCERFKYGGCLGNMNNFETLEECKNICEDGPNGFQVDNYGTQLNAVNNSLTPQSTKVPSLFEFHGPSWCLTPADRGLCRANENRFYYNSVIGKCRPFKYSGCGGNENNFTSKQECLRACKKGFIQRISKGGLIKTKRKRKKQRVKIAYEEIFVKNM
UniProt Q14188: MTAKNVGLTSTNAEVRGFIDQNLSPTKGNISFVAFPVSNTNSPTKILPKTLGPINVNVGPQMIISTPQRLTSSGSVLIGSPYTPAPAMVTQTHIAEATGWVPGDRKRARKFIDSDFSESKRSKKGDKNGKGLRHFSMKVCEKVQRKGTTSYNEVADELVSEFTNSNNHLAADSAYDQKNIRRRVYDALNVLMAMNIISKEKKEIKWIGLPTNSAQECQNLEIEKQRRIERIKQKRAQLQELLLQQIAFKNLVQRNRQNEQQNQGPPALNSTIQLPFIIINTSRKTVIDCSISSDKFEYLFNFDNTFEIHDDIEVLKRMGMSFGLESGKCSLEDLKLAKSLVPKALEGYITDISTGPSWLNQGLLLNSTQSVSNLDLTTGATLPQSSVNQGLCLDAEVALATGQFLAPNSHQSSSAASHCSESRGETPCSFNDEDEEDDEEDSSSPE
UniProt Q8TC07: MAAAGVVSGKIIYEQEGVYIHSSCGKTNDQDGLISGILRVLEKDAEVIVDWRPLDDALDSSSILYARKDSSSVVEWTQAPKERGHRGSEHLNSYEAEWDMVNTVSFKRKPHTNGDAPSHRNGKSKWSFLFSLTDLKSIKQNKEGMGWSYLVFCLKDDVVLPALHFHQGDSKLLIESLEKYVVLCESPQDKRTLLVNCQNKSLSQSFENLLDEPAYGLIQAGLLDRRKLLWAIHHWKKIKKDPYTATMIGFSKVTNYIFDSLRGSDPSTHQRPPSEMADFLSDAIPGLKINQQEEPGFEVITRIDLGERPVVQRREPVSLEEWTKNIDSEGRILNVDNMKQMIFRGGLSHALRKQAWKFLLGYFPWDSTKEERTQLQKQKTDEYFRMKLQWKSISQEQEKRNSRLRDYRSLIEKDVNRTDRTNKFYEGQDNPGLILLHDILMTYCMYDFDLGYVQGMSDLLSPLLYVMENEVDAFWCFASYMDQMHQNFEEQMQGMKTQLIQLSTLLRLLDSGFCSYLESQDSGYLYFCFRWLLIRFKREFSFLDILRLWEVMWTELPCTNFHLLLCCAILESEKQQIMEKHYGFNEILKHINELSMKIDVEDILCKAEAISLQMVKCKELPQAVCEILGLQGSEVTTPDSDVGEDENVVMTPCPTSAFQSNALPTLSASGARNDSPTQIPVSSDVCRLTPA
UniProt Q92734, whole entry, looked up: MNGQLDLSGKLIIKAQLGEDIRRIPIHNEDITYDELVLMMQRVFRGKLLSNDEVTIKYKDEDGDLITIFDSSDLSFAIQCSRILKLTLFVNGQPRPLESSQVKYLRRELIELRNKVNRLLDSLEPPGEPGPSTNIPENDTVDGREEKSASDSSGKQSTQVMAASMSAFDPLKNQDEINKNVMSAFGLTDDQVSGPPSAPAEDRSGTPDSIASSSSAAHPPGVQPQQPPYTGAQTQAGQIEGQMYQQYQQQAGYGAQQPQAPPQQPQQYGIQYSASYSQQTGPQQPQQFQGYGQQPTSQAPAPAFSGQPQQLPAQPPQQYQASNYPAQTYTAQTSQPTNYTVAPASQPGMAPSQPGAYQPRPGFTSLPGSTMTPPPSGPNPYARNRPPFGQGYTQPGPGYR
UniProt Q6NXT6: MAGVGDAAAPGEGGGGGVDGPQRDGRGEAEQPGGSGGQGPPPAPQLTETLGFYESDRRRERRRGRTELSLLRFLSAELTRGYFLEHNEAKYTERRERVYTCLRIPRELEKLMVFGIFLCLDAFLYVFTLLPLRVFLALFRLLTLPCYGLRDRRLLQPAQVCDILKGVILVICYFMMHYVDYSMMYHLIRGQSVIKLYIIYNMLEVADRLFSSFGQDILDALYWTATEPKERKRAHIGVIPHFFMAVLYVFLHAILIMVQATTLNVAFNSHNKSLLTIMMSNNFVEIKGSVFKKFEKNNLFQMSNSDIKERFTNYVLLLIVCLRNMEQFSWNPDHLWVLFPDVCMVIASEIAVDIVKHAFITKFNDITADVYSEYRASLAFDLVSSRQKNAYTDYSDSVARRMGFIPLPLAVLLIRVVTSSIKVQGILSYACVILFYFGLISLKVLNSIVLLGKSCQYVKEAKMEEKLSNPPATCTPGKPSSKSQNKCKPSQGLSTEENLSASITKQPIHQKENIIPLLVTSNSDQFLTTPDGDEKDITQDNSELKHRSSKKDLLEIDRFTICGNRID
UniProt Q7Z7C8, whole entry, looked up: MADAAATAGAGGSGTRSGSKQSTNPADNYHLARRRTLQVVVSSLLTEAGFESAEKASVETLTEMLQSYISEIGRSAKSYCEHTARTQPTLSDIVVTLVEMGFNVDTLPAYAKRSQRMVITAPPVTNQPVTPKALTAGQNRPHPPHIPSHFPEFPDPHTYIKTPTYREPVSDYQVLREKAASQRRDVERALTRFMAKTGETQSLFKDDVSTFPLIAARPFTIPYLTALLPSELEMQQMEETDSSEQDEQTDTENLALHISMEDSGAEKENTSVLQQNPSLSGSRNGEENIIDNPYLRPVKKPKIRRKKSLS
UniProt P17542, whole entry, looked up: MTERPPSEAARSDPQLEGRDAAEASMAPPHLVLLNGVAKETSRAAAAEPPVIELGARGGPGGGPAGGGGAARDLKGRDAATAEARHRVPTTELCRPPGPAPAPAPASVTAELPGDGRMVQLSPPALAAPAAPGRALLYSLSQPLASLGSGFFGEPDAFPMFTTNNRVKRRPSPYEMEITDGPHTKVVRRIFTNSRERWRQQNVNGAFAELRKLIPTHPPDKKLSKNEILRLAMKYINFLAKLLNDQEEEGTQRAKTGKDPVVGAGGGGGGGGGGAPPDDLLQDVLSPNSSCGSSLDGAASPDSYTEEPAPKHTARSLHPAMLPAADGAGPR
UniProt Q17R31: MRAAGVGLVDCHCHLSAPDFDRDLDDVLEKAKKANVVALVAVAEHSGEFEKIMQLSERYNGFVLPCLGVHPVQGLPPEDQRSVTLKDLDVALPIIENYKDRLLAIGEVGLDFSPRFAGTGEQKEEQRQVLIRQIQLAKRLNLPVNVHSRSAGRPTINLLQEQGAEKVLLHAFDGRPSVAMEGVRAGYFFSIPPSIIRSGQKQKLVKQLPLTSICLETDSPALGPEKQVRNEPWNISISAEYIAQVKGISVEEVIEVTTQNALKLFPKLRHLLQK
UniProt Q9NUJ3: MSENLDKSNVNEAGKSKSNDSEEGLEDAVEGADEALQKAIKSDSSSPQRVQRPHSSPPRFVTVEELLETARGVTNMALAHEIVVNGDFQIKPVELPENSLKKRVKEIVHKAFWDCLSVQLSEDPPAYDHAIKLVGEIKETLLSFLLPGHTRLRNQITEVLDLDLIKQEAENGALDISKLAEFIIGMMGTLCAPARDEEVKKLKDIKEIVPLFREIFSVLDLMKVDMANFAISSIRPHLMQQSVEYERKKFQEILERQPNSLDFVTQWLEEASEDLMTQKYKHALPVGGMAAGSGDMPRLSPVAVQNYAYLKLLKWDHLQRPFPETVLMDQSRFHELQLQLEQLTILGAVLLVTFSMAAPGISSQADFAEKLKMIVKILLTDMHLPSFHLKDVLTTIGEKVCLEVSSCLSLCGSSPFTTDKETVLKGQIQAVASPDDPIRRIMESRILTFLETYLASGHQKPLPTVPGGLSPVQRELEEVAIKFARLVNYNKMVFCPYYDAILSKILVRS
UniProt Q15633: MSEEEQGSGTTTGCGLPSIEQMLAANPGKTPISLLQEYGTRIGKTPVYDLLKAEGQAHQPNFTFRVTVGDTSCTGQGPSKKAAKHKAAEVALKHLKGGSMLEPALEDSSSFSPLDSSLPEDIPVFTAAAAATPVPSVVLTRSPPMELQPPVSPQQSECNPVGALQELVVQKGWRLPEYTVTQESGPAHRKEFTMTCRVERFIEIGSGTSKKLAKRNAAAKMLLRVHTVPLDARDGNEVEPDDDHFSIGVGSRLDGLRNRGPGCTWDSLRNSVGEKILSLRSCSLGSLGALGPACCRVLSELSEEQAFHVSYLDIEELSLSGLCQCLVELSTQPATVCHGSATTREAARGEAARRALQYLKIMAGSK
UniProt Q9H7E2: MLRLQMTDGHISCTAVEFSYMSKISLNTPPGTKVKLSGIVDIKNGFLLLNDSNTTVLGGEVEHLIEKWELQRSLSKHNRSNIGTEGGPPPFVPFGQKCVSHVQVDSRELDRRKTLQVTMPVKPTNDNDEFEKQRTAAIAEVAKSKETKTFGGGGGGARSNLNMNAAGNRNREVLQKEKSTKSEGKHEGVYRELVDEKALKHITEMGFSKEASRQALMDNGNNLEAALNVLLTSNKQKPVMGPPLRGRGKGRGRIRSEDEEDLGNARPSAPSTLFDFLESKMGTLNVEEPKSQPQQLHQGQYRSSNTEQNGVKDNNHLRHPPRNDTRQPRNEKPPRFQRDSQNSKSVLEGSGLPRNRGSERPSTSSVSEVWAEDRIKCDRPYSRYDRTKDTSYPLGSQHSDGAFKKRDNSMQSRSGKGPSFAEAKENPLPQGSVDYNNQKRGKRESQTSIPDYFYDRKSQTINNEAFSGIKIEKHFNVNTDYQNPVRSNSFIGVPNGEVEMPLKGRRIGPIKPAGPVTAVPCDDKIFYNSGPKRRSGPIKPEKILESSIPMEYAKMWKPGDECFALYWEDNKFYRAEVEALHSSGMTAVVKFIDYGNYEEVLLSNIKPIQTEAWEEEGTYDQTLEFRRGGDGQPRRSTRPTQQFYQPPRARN
UniProt Q9C0B7: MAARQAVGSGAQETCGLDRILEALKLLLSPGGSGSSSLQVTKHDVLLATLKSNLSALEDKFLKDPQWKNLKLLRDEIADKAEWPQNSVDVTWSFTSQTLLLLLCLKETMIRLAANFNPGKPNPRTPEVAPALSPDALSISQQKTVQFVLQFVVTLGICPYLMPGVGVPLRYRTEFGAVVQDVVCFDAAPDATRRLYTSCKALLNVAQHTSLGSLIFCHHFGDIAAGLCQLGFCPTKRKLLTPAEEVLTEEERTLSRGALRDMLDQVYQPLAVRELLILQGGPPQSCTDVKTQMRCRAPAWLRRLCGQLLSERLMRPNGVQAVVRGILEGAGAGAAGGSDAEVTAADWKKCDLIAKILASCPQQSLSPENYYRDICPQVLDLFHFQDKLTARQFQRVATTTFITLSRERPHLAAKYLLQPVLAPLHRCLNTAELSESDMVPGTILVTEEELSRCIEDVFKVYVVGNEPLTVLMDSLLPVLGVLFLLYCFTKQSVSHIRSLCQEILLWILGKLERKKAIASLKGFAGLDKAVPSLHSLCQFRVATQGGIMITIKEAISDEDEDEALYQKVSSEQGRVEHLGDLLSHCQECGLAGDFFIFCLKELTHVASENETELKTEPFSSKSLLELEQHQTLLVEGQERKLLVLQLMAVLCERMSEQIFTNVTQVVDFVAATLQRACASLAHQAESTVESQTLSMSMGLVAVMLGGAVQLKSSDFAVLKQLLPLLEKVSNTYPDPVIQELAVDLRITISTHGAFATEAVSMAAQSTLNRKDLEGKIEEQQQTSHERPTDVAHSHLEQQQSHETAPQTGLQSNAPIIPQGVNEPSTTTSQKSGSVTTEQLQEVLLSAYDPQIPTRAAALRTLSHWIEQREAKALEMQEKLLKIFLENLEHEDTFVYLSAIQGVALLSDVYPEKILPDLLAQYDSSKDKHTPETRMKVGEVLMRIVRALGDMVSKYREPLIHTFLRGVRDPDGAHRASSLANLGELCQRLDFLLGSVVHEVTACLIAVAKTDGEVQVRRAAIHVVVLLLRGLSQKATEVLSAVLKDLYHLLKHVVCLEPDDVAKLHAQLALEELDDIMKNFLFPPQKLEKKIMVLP

Tests used:
Assay in all cases: log2 fold change, soluble protein after heating vs DMSO (PISA); higher = thermal stabilisation; K562 lysate, 10 uM; active = over 0.2 and 3.5 SD of the protein, either way, in both replicates (recomputed)
[1] = compound: C=CC(=O)N1CCC[C@@H](n2nc(-c3ccc(Oc4ccccc4)cc3)c3c(N)ncnc32)C1 [ibrutinib]
Outline: (§1)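 K562 pellets were dounce-homogenised in PBS pH 7.4 containing 1 mM MgCl2, and the crude extract, at 1 mg/mL protein, was exposed to 10 μM compound for 30 min. Aliquots were heated for 3 min across 48°C-58°C, pooled, brought to 0.5% NP-40 at 4°C and spun at 21,000xg for 90 min, with the supernatant taken as soluble protein. TMTpro 16plex LC-MS/MS with equalised channel sums quantified that protein. Values are log-two fold changes in thermal stability relative to solvent controls, taken from duplicates.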

[2] = compound: CC(=O)c1cnc2ccc(-c3cc(Cl)c(O)c(Cl)c3)nc2c1N[C@H]1CC[C@H](CN(C)C)CC1
Outline: as §1

[3] = compound: CC(C)(C)Cn1c(N)nc2ccc(-c3[nH]c(C(C)(C)C)nc3-c3ccc(F)cc3)nc21 [ralimetinib]
Outline: as §1

[4] = compound: CC(C)(O)CC(=O)NCCn1ccc2ncnc(Nc3ccc(Oc4cccc(C(F)(F)F)c4)c(Cl)c3)c21
Outline: as §1

[5] = compound: CC(C)C1=C2N=C(C=C(N2N=C1)NCC3=CC=CC=C3)NCCCCCCN
Outline: as §1

[6] = compound: CC1=C(C(CC(=O)N1)C2=CC=C(C=C2)C(F)(F)F)C(=O)NC3=C(C=C4C(=C3)C=NN4)F
Outline: as §1

[7] = compound: CC1=C(C2=C(C=C1)C(=O)C3=CC=CC=C3N2CCCN)C
Outline: as §1

[8] = compound: CC1=C(C=C(C=C1)NC(=O)C2=CC(=CC=C2)C(C)(C)C#N)NC3=CC4=C(C=C3)N=CN(C4=O)C
Outline: as §1

[9] = compound: CC1=C(C=C(C=C1)NC(=O)C2=CC(=CC=C2)N(C)C)NC(=O)C3=CC=C(C=C3)O
Outline: as §1

[10] = compound: CC1=CC=C(C=C1)SC2=C3C=C(SC3=CN=C2)C(=O)N
Outline: as §1

[11] = compound: CCCS(=O)(=O)Nc1ccc(F)c(C(=O)c2c[nH]c3ncc(-c4ccc(Cl)cc4)cc23)c1F [vemurafenib]
Outline: as §1

[12] = compound: CCCS(=O)(=O)Nc1ccc(F)c(C(=O)c2c[nH]c3ncc(Cl)cc23)c1F
Outline: as §1

[13] = compound: CCN(CCCOc1ccc2c(Nc3cc(CC(=O)Nc4cccc(F)c4)[nH]n3)ncnc2c1)CCOP(=O)(O)O [barasertib]
Outline: as §1

[14] = compound: CC[C@@H]1C(=O)N(C)c2cnc(Nc3ccc(C(=O)NC4CCN(C)CC4)cc3OC)nc2N1C1CCCC1
Outline: as §1

[15] = compound: CC[C@@H]1C(=O)N(C)c2cnc(Nc3ccc(C(=O)N[C@H]4CC[C@H](N5CCN(CC6CC6)CC5)CC4)cc3OC)nc2N1C(C)C [volasertib]
Outline: as §1

[16] = compound: CCn1c(C(=O)N(C2CC2)C2CC2)cc2c3c(ncn3C)c(Nc3cc(C)n(C)n3)nc21
Outline: as §1

[17] = compound: CCn1cc(-c2ccnc3[nH]c(-c4cccc(CN(C)C)c4)cc23)c(-c2ccc(NC(=O)N(C)C)cc2)n1
Outline: as §1

[18] = compound: CN1CCC(CNc2ccc3ncc(-c4cccc(OC(F)(F)F)c4)n3n2)CC1
Outline: as §1

[19] = compound: CN1CCN(CCOc2cc(OC3CCOCC3)c3c(Nc4c(Cl)ccc5c4OCO5)ncnc3c2)CC1 [saracatinib]
Outline: as §1

[20] = compound: CN1CCN(c2nc(C3=C(c4c[nH]c5ccccc45)C(=O)NC3=O)c3ccccc3n2)CC1 [sotrastaurin]
Outline: as §1

Target	log2 fold change [1]	log2 fold change [2]	log2 fold change [3]	log2 fold change [4]	log2 fold change [5]	log2 fold change [6]	log2 fold change [7]	log2 fold change [8]	log2 fold change [9]	log2 fold change [10]	log2 fold change [11]	log2 fold change [12]	log2 fold change [13]	log2 fold change [14]	log2 fold change [15]	log2 fold change [16]	log2 fold change [17]	log2 fold change [18]	log2 fold change [19]	log2 fold change [20]
TEX30 (UniProt Q5JUR7)	inactive: 0.17	inactive: 0.003	inactive: 0.047	inactive: -0.053	inactive: -0.045	inactive: -0.033	inactive: 0.016	inactive: -0.027	inactive: 0.019	inactive: 0.019	inactive: 0.008	inactive: 0.033	inactive: 0.109	inactive: -0.077	inactive: -0.051	inactive: 0.005	inactive: -0.301	inactive: 0.088	inactive: -0.011	inactive: -0.023
TBC1D23 (UniProt Q9NUY8)	inactive: 0.034	inactive: 0.002	inactive: 0.004	inactive: -0.021	inactive: 0.03	inactive: 0.032	inactive: -0.05	inactive: 0.014	inactive: 0.012	inactive: -0.012	inactive: -0.003	inactive: 0.011	inactive: 0	inactive: -0.027	inactive: -0.029	inactive: -0.012	inactive: -0.058	inactive: 0.023	inactive: 0.012	inactive: 0.017
TBC1D10A (UniProt Q9BXI6)	inactive: 0.034	inactive: 0.02	inactive: 0.017	inactive: -0.045	inactive: -0.04	inactive: 0	inactive: 0.019	inactive: -0.009	inactive: 0.022	inactive: 0.003	–	inactive: 0.025	inactive: -0.024	–	inactive: 0.051	inactive: -0.07	inactive: -0.018	inactive: 0.054	inactive: 0.084	inactive: 0.081
TEPSIN, A0A1B0GV70	inactive: -0.045	inactive: 0.096	inactive: 0.05	inactive: -0.086	inactive: -0.113	inactive: -0.033	inactive: -0.048	inactive: 0.08	inactive: 0.037	inactive: 0.051	inactive: -0.108	inactive: 0.045	inactive: -0.021	inactive: 0.072	inactive: -0.234	inactive: 0.006	inactive: -0.04	inactive: -0.002	inactive: -0.13	inactive: -0.048
TFPI (UniProt P10646)	inactive: 0.024	inactive: 0.035	inactive: 0.046	inactive: -0.003	inactive: -0.011	inactive: -0.042	–	inactive: 0.021	inactive: -0.027	inactive: 0.073	inactive: -0.079	inactive: 0.005	inactive: 0.015	inactive: -0.019	inactive: 0.016	inactive: 0.093	active: 0.689	inactive: -0.321	–	inactive: 0.167
TFDP2 (UniProt Q14188)	inactive: 0.095	inactive: 0.08	inactive: 0.009	inactive: -0.111	inactive: -0.005	inactive: -0.012	inactive: -0.081	inactive: 0.037	inactive: -0.227	inactive: 0.059	inactive: -0.319	inactive: -0.063	inactive: 0.128	–	inactive: -0.032	inactive: -0.057	–	–	inactive: 0.141	inactive: 0.034
TBC1D15 isoform 3 (UniProt Q8TC07)	inactive: 0.014	inactive: 0.01	inactive: -0.013	inactive: -0.01	inactive: -0.002	inactive: 0.007	inactive: -0.006	inactive: 0.009	inactive: 0.002	inactive: 0.017	inactive: -0.026	inactive: 0.007	inactive: 0.031	inactive: -0.048	inactive: -0.032	inactive: 0.022	inactive: 0.082	inactive: -0.073	inactive: 0.025	inactive: 0.001
TFG (UniProt Q92734)	inactive: 0.001	inactive: -0.002	inactive: -0.029	inactive: -0.008	inactive: -0.004	inactive: -0.021	inactive: 0.002	inactive: 0.003	inactive: -0.018	inactive: 0.008	inactive: 0.011	inactive: -0.001	inactive: 0.01	inactive: 0.084	inactive: 0.025	inactive: 0.002	inactive: -0.034	inactive: 0.024	inactive: 0.003	inactive: -0.015
TAPT1 (UniProt Q6NXT6)	inactive: 0.071	inactive: 0.012	inactive: -0.029	inactive: -0.07	inactive: 0.004	inactive: -0.019	inactive: -0.014	inactive: 0.09	inactive: -0.004	inactive: -0.027	inactive: 0.031	inactive: 0.043	inactive: -0.039	inactive: 0.024	inactive: 0.028	inactive: -0.026	active: -0.229	inactive: 0.106	inactive: -0.014	inactive: -0.002
TAF8 isoform 2 (UniProt Q7Z7C8)	inactive: 0.012	inactive: 0.007	inactive: -0.031	inactive: -0.039	inactive: -0.119	inactive: 0.05	inactive: -0.062	inactive: -0.004	inactive: 0.046	inactive: -0.049	inactive: -0.053	inactive: 0.02	inactive: 0.117	inactive: 0.038	inactive: 0.013	inactive: 0.006	inactive: -0.096	inactive: -0.017	inactive: 0.014	inactive: 0.021
TAL1 (UniProt P17542)	inactive: 0.005	inactive: 0.001	inactive: 0.011	inactive: -0.049	inactive: -0.013	inactive: 0.034	inactive: -0.015	inactive: -0.042	inactive: 0.048	inactive: 0.017	inactive: 0.016	inactive: -0.055	inactive: 0.023	inactive: 0.115	inactive: 0.028	inactive: 0.102	inactive: -0.007	inactive: 0.035	inactive: 0.029	inactive: -0.005
TATDN3 isoform 3 (UniProt Q17R31)	inactive: 0.027	inactive: -0.005	inactive: 0.019	inactive: -0.095	inactive: 0.006	inactive: -0.023	inactive: -0.046	inactive: -0.017	inactive: -0.015	inactive: -0.011	inactive: 0.004	inactive: 0.038	inactive: 0	inactive: 0.003	inactive: 0.006	inactive: -0.048	inactive: -0.165	inactive: 0.075	inactive: 0.067	inactive: 0.027
TCP11L1 (UniProt Q9NUJ3)	inactive: 0.026	inactive: -0.033	inactive: -0.093	inactive: -0.061	inactive: -0.045	inactive: -0.032	inactive: -0.052	inactive: -0.008	inactive: 0.02	inactive: -0.008	inactive: -0.078	inactive: 0.014	inactive: 0.038	inactive: 0.045	inactive: -0.054	inactive: 0.009	inactive: -0.244	inactive: 0.097	inactive: -0.007	inactive: 0.009
TBCK (UniProt Q8TEA7)	inactive: 0.075	inactive: -0.116	inactive: -0.06	inactive: 0.032	inactive: 0.184	inactive: 0.007	inactive: 0.082	inactive: -0.037	inactive: 0.096	inactive: 0.007	–	inactive: -0.042	inactive: 0.005	inactive: 0.013	inactive: -0.107	inactive: -0.199	inactive: 0.518	inactive: 0.051	inactive: -0.097	inactive: 0.048
TARBP2 (UniProt Q15633)	inactive: -0.013	inactive: 0	inactive: -0.025	inactive: -0.042	inactive: 0.013	inactive: 0.074	inactive: -0.002	inactive: 0.029	inactive: 0.062	inactive: -0.015	inactive: -0.035	inactive: 0.092	inactive: 0.093	inactive: -0.145	inactive: -0.034	inactive: -0.016	inactive: -0.02	inactive: -0.093	inactive: 0.035	inactive: -0.006
TDRD3 isoform 3 (UniProt Q9H7E2)	inactive: -0.03	inactive: 0.009	inactive: -0.094	inactive: 0.01	inactive: -0.018	inactive: -0.073	inactive: -0.004	inactive: 0	inactive: -0.102	inactive: 0.026	inactive: 0.012	inactive: -0.01	inactive: -0.043	inactive: 0.041	inactive: -0.054	inactive: 0.137	inactive: 0.164	inactive: -0.078	inactive: -0.094	inactive: 0.014
TANGO6 (UniProt Q9C0B7)	inactive: -0.056	inactive: 0.039	inactive: 0.023	inactive: 0.02	inactive: -0.067	inactive: -0.028	inactive: -0.017	inactive: -0.013	inactive: -0.02	inactive: -0.011	inactive: 0.062	inactive: -0.113	inactive: 0.036	inactive: 0.023	inactive: 0.042	inactive: -0.054	inactive: -0.187	inactive: 0.121	inactive: -0.011	inactive: 0.081

Two consecutive entries already listed, for reference:
Target	log2 fold change [1]	log2 fold change [2]	log2 fold change [3]	log2 fold change [4]	log2 fold change [5]	log2 fold change [6]	log2 fold change [7]	log2 fold change [8]	log2 fold change [9]	log2 fold change [10]	log2 fold change [11]	log2 fold change [12]	log2 fold change [13]	log2 fold change [14]	log2 fold change [15]	log2 fold change [16]	log2 fold change [17]	log2 fold change [18]	log2 fold change [19]	log2 fold change [20]
TBC1D23 (UniProt Q9NUY8)	inactive: 0.034	inactive: 0.002	inactive: 0.004	inactive: -0.021	inactive: 0.03	inactive: 0.032	inactive: -0.05	inactive: 0.014	inactive: 0.012	inactive: -0.012	inactive: -0.003	inactive: 0.011	inactive: 0	inactive: -0.027	inactive: -0.029	inactive: -0.012	inactive: -0.058	inactive: 0.023	inactive: 0.012	inactive: 0.017
TBC1D10A (UniProt Q9BXI6)	inactive: 0.034	inactive: 0.02	inactive: 0.017	inactive: -0.045	inactive: -0.04	inactive: 0	inactive: 0.019	inactive: -0.009	inactive: 0.022	inactive: 0.003	–	inactive: 0.025	inactive: -0.024	–	inactive: 0.051	inactive: -0.07	inactive: -0.018	inactive: 0.054	inactive: 0.084	inactive: 0.081
